Record: PubChem BioAssay AID720505 (Drosophila RNAi Screening Center, 2013)

- Screen: 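Knock-downs that reduce calcium influx once internal stores are emptied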 (primary screen)
- System: Drosophila S2R+ cells
- Reagent: long dsRNA against Drosophila genes
- Treatment: thapsigargin (2 µM) in calcium-free buffer to empty internal stores, then 2 mM calcium added back
- Detection: 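Fluo-4 signal in 384-well plates read on a FLIPR after thapsigargin (2 µM, calcium-free) store depletion and 2 mM calcium add-back; unnormalised mean endpoint per well; screen run twice, selected wells retested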
- Scale: calcium signal and retest calcium signal: higher = more calcium entry after store depletion
- Active means: 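About 1500 genes called as lowering calcium entry, by varying amounts, judged against per-plate control wells with STIM1 as positive and Rho1 as negative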
- Calls: active = called as lowering calcium entry; inactive = not called
The screen tested about 20,000 reagents; below is a random part of those that have a named target and a result. Over the whole deposit, about 2,100 (10%) are marked active. 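Raw plate signals without normalisation; calls rest on control-based scores that were not deposited; replicate 2 separates called from uncalled poorly.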 Unmarked entries are inactive. No sequences are given here. The record does not give: the amount of reagent, the time to read-out.

CG34057 [DRSC08375] scored calcium signal, replicate 1 = 103; calcium signal, replicate 2 = 68.7.
With knock-down of CG4646 [DRSC06876], the screen gave calcium signal, replicate 1 = 108; calcium signal, replicate 2 = 168.
Against CG3420 [DRSC04995] the deposit lists calcium signal, replicate 1 = 119; calcium signal, replicate 2 = 211.
per (period) [DRSC18818] showed calcium signal, replicate 1 = 101 (active); calcium signal, replicate 2 = 100.
Silencing of CG7824 [DRSC16321] came out at: calcium signal, replicate 1 = 190; calcium signal, replicate 2 = 148.
With knock-down of eIF4E7 (eukaryotic translation initiation factor 4E7) [DRSC17782] the results were calcium signal, replicate 1 = 125; calcium signal, replicate 2 = 140.
With knock-down of eIF4E7 (eukaryotic translation initiation factor 4E7) [DRSC18623], the record shows calcium signal, replicate 1 = 118; calcium signal, replicate 2 = 117.
Against Mfe2 (peroxisomal Multifunctional enzyme type 2) [DRSC19869], the entry reads calcium signal, replicate 1 = 159; calcium signal, replicate 2 = 158.
Depletion of CG4073 [DRSC15542] came out at: calcium signal, replicate 1 = 161; calcium signal, replicate 2 = 122.
Against Paip2 (polyA-binding protein interacting protein 2) [DRSC14504], the values are calcium signal, replicate 1 = 106; calcium signal, replicate 2 = 160.
After knock-down of Ppt2 (Palmitoyl-protein Thioesterase 2) [DRSC02786], the record shows calcium signal, replicate 1 = 88.8; calcium signal, replicate 2 = 106.
Depletion of CG6028 [DRSC15951] came out at: calcium signal, replicate 1 = 119; calcium signal, replicate 2 = 149.
After knock-down of CG16959 [DRSC10230], the screen gave calcium signal, replicate 1 = 185; calcium signal, replicate 2 = 83.8.
Rpn10 (Regulatory particle non-ATPase 10) [DRSC11876] scored calcium signal, replicate 1 = 79.6; calcium signal, replicate 2 = 176.
Against TP53INP (Tumor protein p53 inducible nuclear protein) [DRSC08178], the values are calcium signal, replicate 1 = 104; calcium signal, replicate 2 = 118; retest calcium signal, replicate 1 = 175; retest calcium signal, replicate 2 = 160.
With knock-down of TP53INP (Tumor protein p53 inducible nuclear protein) [DRSC22552], the record shows calcium signal, replicate 1 = 68.6; calcium signal, replicate 2 = 128.
After knock-down of dmpd (dampened) [DRSC06092] the results were calcium signal, replicate 1 = 148; calcium signal, replicate 2 = 128.
Rab14 [DRSC03403] gave calcium signal, replicate 1 = 86.8; calcium signal, replicate 2 = 94.6.
Sol1 [DRSC15263] scored calcium signal, replicate 1 = 174; calcium signal, replicate 2 = 109.
Silencing of Sol1 [DRSC15271] gave: calcium signal, replicate 1 = 168; calcium signal, replicate 2 = 119.
Sol1 [DRSC15681] showed calcium signal, replicate 1 = 157; calcium signal, replicate 2 = 147.
With knock-down of CG9568 [DRSC03265], the record shows calcium signal, replicate 1 = 121; calcium signal, replicate 2 = 157; retest calcium signal, replicate 1 = 77.5; retest calcium signal, replicate 2 = 73.2.
CG13177 [DRSC06303] gave calcium signal, replicate 1 = 99.3; calcium signal, replicate 2 = 194.
Sclp [DRSC19851] gave calcium signal, replicate 1 = 152; calcium signal, replicate 2 = 91.
Non2 (Novel nucleolar protein 2) [DRSC08272] gave calcium signal, replicate 1 = 66.2 (active); calcium signal, replicate 2 = 115.
For CG14960 [DRSC08419], the entry reads calcium signal, replicate 1 = 75.6; calcium signal, replicate 2 = 128.
With knock-down of Dredd (Death related ced-3/Nedd2-like caspase) [DRSC18461] the results were calcium signal, replicate 1 = 130; calcium signal, replicate 2 = 130.
After knock-down of CG10959 [DRSC17769], the screen gave calcium signal, replicate 1 = 106; calcium signal, replicate 2 = 99.
CG13293 [DRSC09967] scored calcium signal, replicate 1 = 112; calcium signal, replicate 2 = 93.1.
Hmu (Hemomucin) [DRSC16705] gave calcium signal, replicate 1 = 164; calcium signal, replicate 2 = 124.
Knock-down of bnb (bangles and beads) [DRSC20314] gave: calcium signal, replicate 1 = 165; calcium signal, replicate 2 = 105.
axed (axundead) [DRSC10982] gave calcium signal, replicate 1 = 86; calcium signal, replicate 2 = 67.7.
For CAH4 (Carbonic anhydrase 4) [DRSC22433], the values are calcium signal, replicate 1 = 142; calcium signal, replicate 2 = 211.
Silencing of kat-60L1 (katanin p60-like 1) [DRSC12184] came out at: calcium signal, replicate 1 = 148; calcium signal, replicate 2 = 113.
With knock-down of Ugt37B1 (UDP-glycosyltransferase family 37 member B1) [DRSC03225] the results were calcium signal, replicate 1 = 61.7 (active); calcium signal, replicate 2 = 169.

Entries listed above marked active, once more:
per (period) [DRSC18818] — calcium signal, replicate 1: 101 (active); calcium signal, replicate 2: 100
Non2 (Novel nucleolar protein 2) [DRSC08272] — calcium signal, replicate 1: 66.2 (active); calcium signal, replicate 2: 115
Ugt37B1 (UDP-glycosyltransferase family 37 member B1) [DRSC03225] — calcium signal, replicate 1: 61.7 (active); calcium signal, replicate 2: 169
